According to paper PMC10763551:
Results are given in words; binding and its absence hold for the method and conditions named.

Biological target: Wild-type lmSrtA (Listeria monocytogenes sortase A, residues 71-222) (Listeria monocytogenes) (UniProt Q8Y8H5)
Experiment: SEC; analytical SEC of the purified enzymes; conditions not given; both purified

B1: Wild-type lmSrtA (Listeria monocytogenes sortase A, residues 71-222) (enzyme, UniProt Q8Y8H5 71-222)
chain: GAANYDKDAVVGSIAVPSVDVNLLVFKGTNTANLLAGATTMRSDQVMGKGNYPLAGHHMRDESMLFGPIMKVKKGDKIYLTDLENLYEYTVTETKTIDETEVSVIDNTKDARITLITCDKPTETTKRFVAVGELEKTEKLTKELENKYFPSK
- binding: no binding
